Data from PMC6818788.
Construct, isoform or probe ends are uncertain for at least one entry. For part of these data: A negative result means that nothing was seen under these conditions. For part of these data: Where a protein sequence is shown, tags need not be part of it. For part of these data: Weaker means in comparison with the reference protein, sequence or condition of that experiment.

Amino acid sequences for entries named in this document (tags omitted). A change or cut given only in a name is not applied to a line headed by its entry.
UniProt P70434: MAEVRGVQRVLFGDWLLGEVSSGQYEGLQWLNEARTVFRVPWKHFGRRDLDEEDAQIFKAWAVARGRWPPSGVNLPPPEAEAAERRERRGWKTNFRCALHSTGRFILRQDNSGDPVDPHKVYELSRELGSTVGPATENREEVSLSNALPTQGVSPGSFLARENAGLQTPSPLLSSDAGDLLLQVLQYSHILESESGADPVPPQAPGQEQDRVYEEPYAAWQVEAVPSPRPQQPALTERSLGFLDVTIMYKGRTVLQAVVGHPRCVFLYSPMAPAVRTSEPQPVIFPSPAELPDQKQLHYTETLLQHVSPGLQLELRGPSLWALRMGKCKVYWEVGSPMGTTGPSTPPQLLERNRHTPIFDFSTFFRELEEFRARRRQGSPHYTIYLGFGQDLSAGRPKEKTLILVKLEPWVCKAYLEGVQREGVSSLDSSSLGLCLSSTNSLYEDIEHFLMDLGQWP

Columns and labels:
[1] = target: MBP-IRF7 (mouse (cDNA from MHV-stimulated BMDCs)) (UniProt P70434); experiment: EMSA; details: 400 mM Tris-HCl pH 8.0, proteins 30 min on ice, then probe 30 min at room temperature, 1% agarose gel, recombinant protein, protein details: MBP (pMAL-CX2), label: CY5
[2] = target: T1, GST-IFI204 (mouse (cDNA from MHV-stimulated BMDCs)) (UniProt P0DOV2); experiment: EMSA; details: 400 mM Tris-HCl pH 8.0; proteins 30 min on ice, then probe 30 min at room temperature; 1% agarose gel; recombinant protein; protein details: GST (pGEX-4T-1); label: CY5
T1 sequence (looked up, limits assumed): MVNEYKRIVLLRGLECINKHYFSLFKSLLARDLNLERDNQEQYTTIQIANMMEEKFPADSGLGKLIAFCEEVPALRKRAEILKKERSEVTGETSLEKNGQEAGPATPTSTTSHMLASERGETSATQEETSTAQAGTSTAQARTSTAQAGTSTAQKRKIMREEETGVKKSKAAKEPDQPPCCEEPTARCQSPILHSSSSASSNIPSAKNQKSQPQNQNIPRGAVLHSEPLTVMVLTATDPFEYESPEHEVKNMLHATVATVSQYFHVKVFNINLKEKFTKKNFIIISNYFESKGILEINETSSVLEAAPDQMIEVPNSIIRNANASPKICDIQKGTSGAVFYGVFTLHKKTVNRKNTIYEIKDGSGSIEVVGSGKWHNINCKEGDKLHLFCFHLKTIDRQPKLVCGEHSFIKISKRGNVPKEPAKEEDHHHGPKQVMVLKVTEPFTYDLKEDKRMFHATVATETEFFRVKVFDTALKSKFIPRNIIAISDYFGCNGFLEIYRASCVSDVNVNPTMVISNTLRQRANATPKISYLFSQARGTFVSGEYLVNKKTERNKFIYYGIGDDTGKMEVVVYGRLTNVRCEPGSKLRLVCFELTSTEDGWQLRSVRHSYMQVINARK

Q: Does “GAGAAGTGAAAGTGGAGAAGTGAAAGTGGAGAAGTGAAAGTGGAGAAGTGAAAGTG (double strand) [PRDI (IFN-beta promoter PRDI region)]” bind [1]?
A: binds

Q: Does “GAGAAGTGAAAGTGGAGAAGTGAAAGTGGAGAAGTGAAAGTGGAGAAGTGAAAGTG (double strand) [PRDI (IFN-beta promoter PRDI region)]” bind ([1]; GST-IFI204 added, dose-dependent inhibition)?
A: binds more weakly

Q: Does “GAGAAGTGAAAGTGGAGAAGTGAAAGTGGAGAAGTGAAAGTGGAGAAGTGAAAGTG (double strand) [PRDI (IFN-beta promoter PRDI region)]” bind [2]?
A: no binding
